Test results published in patent US20230365577A1, “Photodynamic Therapy and Diagnosis” (RMW CHO Group Limited, priority 2020, published 2023).
Counter-ions that a name gives are not always drawn. Some entries repeat one wording, which the source may state once for all of them.

How the values were obtained:
SKOV3 cells = experiment: Cellular uptake and retention (intrinsic fluorescence); assay type: cell-based, Human; details: SKOV3, fluorescence imaging
Description: Based on the increased phototoxicity of compound 1c versus compound 1, it was assessed whether this salt substitution alters cellular uptake or retention over time. SKOV3 cells were incubated for up 24 hours in the presence of either compound 1 or 1c (as previously described). At defined time intervals (FIG. 5) the media was aspirated, replaced with sterile PBS, and cells imaged for fluorescence (Ex 405 nm/Em 660 nm) using a Cytation 3 Multimode Plate Reader (Biotek). After 24 hours the media was aspirated, replaced with fresh media and the loss of cellular fluorescence similarly monitored. All images (minimum 100 cells per time point) were then quantitatively analysed (Gen5.0 software) and an average fluorescence/cell/time point determined. Average fluorescence measurements were normalised against the maximum average value measured for each photosensitizer, and plotted as percent total fluorescence (mean±SD) overtime.
The uptake and retention of compounds 1 and 2 was compared in SKOV3 cancer cells over a 48 hour period. SKOV3 cells were incubated for up 24 hours in the presence of either compound 1 or 2 (as previously described). At defined time intervals (FIG. 6) the media was aspirated, replaced with sterile PBS, and cells imaged for fluorescence (Ex 405 nm/Em 660 nm) using a Cytation 3 Multimode Plate Reader (Biotek). After 24 hours the media was aspirated, replaced with fresh media and the loss of cellular fluorescence similarly monitored. All images (minimum 100 cells per time point) were then quantitatively analysed (Gen5.0 software) and an average fluorescence/cell/time point determined. Average fluorescence measurements were normalised against the maximum average value measured for each photosensitizer, and plotted as percent total fluorescence (mean±SD) over time.
Phyllochlorin was functionalised with saccharidyl groups (glucose or mannose) using various configurations, and the effects on rate of uptake by cells assessed over a 4 hour incubation period as above. The rate of uptake of saccharidyl-conjugated phyllochlorin analogues exceeded that of unconjugated compound 2 (examples shown in FIG. 7); after 2 hours, saccharidyl-conjugated phyllochlorin analogues (compounds 6, 8 and 17) had reached 57-68% of their maximal uptake compared to 37% for compound 2 (FIG. 7A). By 4 hours total uptake was similar, and there was no apparent difference in cellular distribution between glucose (compounds 6 and 8) and mannose (compound 17) linked species (FIG. 7B).

[1] = test system: SKOV3 ovarian cancer cells; experiment: Phototoxicity in SKOV3 cells (652 nm laser, AlamarBlue viability); assay type: cell-based, Human; details: calculated using phototoxicity IC90 vs dark toxicity IC10, SKOV3
Description: Human ovarian cancer cell line SKOV3 (ATCC #HTB-77) was maintained in Dulbecco's Modified Eagle Medium/Nutrient Mixture F-12 (DMEM/F-12), supplemented with 10% v/v Fetal Bovine Serum, 100 U/mL penicillin and 100 µg/mL streptomycin. Monolayer cultures were grown in a humidified incubator at 37° C. with 5% CO2.
For in vitro experiments, photosensitizers (stock solution 5.5 mM in 100% DMSO) were diluted in cell culture media (Dulbecco's Modified Eagle Medium/Nutrient Mixture F-12) supplemented with 10% v/v Fetal Bovine Serum, 100 U/mL penicillin, 100 µg/mL streptomycin and 10% w/v Kollidon-12. Once cells had reached ˜80% confluence, spent media was replaced with media containing photosensitizer and cells were incubated for the desired period of time to allow photosensitizer uptake.
SKOV3 cells were seeded in 96-well black wall plates (Greiner #655090) at a cell density of 5000 cells in 100 μl culture medium per well. On reaching ˜60% confluence, so media was aspirated and replaced with fresh media containing the relevant phyllochlorin analogue from 0-100 μM in DMSO. Cells were incubated for a further 24 hours, allowing uptake of phyllochlorin analogues.
To test for phototoxicity, cells incubated with phyllochlorin analogues (0-10 μM in DMSO) had culture media replaced after 24 hours (as above) and were then exposed to a 652 nm laser (Invion) with laser density at 50 mW/cm^2 for 5 mins (total 15 J/cm^2). Following activation, cells were cultured for a further 24 hours. Media was then replaced with fresh media containing AlamarBlue, and % viable cells remaining assessed as above. Controls included cells treated with phyllochlorin analogues but not activated by laser light; cells without phyllochlorin analogue treatment but with laser light; and untreated controls. All measurements were made in quadruplicate.
For comparative purposes, phyllochlorin analogues were tested and compared against both chlorin e4 disodium and Talaporfin sodium, a clinically approved photosensitizer used in the photodynamic treatment of lung cancers. Phototoxicity IC90 values and dark toxicity IC10 values were calculated using a log[inhibitor]-vs normalized response dose curve with variable slope, using the formula Y=100/(1+(IC90/X)^HillSlope (phototoxicity IC90) or Y=100/(1+(IC10/X)^HillSlope (dark toxicity IC10).

## C=Cc1c(C)c2cc3nc(c(C)c4cc(C)c(cc5nc(cc1[nH]2)C(C)=C5CC)[nH]4)[C@@H](CCC(=O)O)[C@@H]3C [Compound 1, phyllochlorin sodium salt]
SKOV3 cells
  Cellular distribution: diffusely distributed throughout the cytoplasm
[1]; sodium salt
  Therapeutic Index: 62.74

## C=Cc1c(C)c2cc3nc(c(C)c4cc(C)c(cc5nc(cc1[nH]2)C(C)=C5CC)[nH]4)[C@@H](CCC(=O)OC)[C@@H]3C [Compound 2, phyllochlorin methyl ester]
SKOV3 cells
  Cellular distribution: distinctly punctate distribution
[1]
  Therapeutic Index: 152.38

## C=Cc1c(C)c2cc3nc(c(C)c4cc(C)c(cc5nc(cc1[nH]2)C(C)=C5CC)[nH]4)[C@@H](CCC(=O)N(C)CCCS[C@@H]1O[C@H](CO)[C@@H](O)[C@H](O)[C@H]1O)[C@@H]3C [Compound 6, 3-((7S,8S)-18-ethyl-2,5,8,12,17-pentamethyl-13-vinyl-7H,8H-porphyrin-7-yl)-N-methyl-N-(3-(((2S,3R,4S,5S,6R)-3,4,5-trihydroxy-6-(hydroxymethyl)tetrahydro-2H-pyran-2-yl)thio)propyl)propanamide]
SKOV3 cells
  Cellular distribution: diffusely distributed throughout the cytoplasm
[1]
  Therapeutic Index: 158.17

## C=Cc1c(C)c2cc3nc(c(C)c4cc(C)c(cc5nc(cc1[nH]2)C(C)=C5CC)[nH]4)[C@@H](CCC(=O)N(C)CCCCCS[C@@H]1O[C@H](CO)[C@@H](O)[C@H](O)[C@H]1O)[C@@H]3C [Compound 8, 3-((7S,8S)-18-ethyl-2,5,8,12,17-pentamethyl-13-vinyl-7H,8H-porphyrin-7-yl)-N-methyl-N-(5-(((2S,3R,4S,5S,6R)-3,4,5-trihydroxy-6-(hydroxymethyl)tetrahydro-2H-pyran-2-yl)thio)pentyl)propanamide]
SKOV3 cells
  Cellular distribution: diffusely distributed throughout the cytoplasm
[1]
  Therapeutic Index: 209.17

## C=Cc1c(C)c2cc3nc(c(C)c4cc(C)c(cc5nc(cc1[nH]2)C(C)=C5CC)[nH]4)[C@@H](CCC(=O)N(C)CCCS[C@@H]1O[C@H](CO)[C@@H](O)[C@H](O)[C@@H]1O)[C@@H]3C [Compound 17, phyllochlorin β-D-1-thiomannose-N-methylpropylamide conjugate]
SKOV3 cells
  Cellular distribution: diffusely distributed throughout the cytoplasm
[1]
  Therapeutic Index: 346.68

## C=Cc1c(C)c2cc3nc(c(CC(=O)N[C@@H](CC(=O)O)C(=O)O)c4[nH]c(cc5nc(cc1[nH]2)C(C)=C5CC)c(C)c4C(=O)O)[C@@H](CCC(=O)O)[C@@H]3C [Talaporfin sodium, mono-L-aspartyl chlorin e6, reference compound]
[1]
  Therapeutic Index: 0.49
